{"sequences": {"note": "Amino acid sequences for entries named in this document (tags omitted). A change or cut given only in a name is not applied to a line headed by its entry.", "UniProt P01871": "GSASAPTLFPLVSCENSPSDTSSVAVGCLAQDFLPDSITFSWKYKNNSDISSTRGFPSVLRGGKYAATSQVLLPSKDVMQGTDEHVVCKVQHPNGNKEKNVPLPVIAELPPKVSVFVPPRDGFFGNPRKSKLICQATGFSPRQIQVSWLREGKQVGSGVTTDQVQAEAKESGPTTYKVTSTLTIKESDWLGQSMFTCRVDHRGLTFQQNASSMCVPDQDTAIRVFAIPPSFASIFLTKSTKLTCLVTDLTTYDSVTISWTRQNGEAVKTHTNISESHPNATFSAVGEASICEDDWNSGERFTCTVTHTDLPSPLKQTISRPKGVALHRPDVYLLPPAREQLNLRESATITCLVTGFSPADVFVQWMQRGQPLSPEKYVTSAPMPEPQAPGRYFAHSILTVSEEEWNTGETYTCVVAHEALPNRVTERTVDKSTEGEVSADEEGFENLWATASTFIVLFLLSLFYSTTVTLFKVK"}, "source": "patent US20260035459A1", "about": "“HUMANIZED CHIMERIC ANTIGEN RECEPTORS TARGETING THE B-CELL RECEPTOR OF CHRONIC LYMPHOCYTIC LEUKEMIA AND USES THEREOF” (AVA LIFESCIENCE GMBH, priority 2022, published 2026)", "binders": {"B1": {"name": "murine monoclonal antibody mAb01-01 (antibody, V domains shown)", "VH": "QVQLQQSGPGLVQPSQSLSITCTVSGFSLTSYGIHWVRQSPGKGLEWLGVIWRGGGTDSNAAFMSRLSITKDNSKSQVFFKMNSLQADDTAIYYCARSRYDEEESMNYWGQGTSVTVSS", "VL": "QIVLTQSPASLSASVGETVTITCRASGNIHSYLAWYQQKQGKSPQLLVYNAKTLADGVPSRFSGSGSGTQYSLKINSLQPEDFGSYYCQHFWNTPPTFGAGTKLELK"}}, "biological_target": "membrane-bound IGHV3-21/IGLV3-21^R110 BCR expressed on triple knockout (TKO) cells (human) (UniProt P01871)", "test": "FACS binding assay on BCR-expressing TKO cells, with fluorescently labeled anti-mouse IgG", "note": "These are yes or no findings as the source states them, for the method shown. Some binding calls cover weakened binding; strength is not graded here."}
{"binder": "B1", "values": [{"measurement": "binding", "result": "binds"}]}
